Results are given in words; binding and its absence hold for the method and conditions named. Binding seen in cells or lysates may run through a third protein. These calls come from enrichment with a bait or labelling near it, and not all partners need be listed. For some assays here: Tags and fused reporters may be left off the sequences shown.
T1: TTC30B (human) (UniProt Q8N4P2)
T1 sequence: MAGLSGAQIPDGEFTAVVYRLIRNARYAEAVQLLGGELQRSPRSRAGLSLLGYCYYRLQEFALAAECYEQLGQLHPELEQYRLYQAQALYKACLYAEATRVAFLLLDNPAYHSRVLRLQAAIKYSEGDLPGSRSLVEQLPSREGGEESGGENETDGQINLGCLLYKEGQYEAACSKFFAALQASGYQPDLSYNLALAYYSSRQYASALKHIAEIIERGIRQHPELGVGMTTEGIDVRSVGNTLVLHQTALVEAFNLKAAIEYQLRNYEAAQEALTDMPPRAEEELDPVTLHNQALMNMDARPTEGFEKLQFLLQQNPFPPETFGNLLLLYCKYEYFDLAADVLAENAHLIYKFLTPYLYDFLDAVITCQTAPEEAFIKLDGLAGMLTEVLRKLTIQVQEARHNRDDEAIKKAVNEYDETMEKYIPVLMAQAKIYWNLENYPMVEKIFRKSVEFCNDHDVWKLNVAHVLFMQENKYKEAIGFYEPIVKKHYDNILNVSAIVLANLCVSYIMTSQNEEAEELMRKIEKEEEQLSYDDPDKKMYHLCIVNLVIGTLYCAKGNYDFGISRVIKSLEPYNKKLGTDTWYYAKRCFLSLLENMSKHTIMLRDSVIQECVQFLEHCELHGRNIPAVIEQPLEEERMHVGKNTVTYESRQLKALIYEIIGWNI

Chains of the proteins cited; added tags and fusions are not shown.
UniProt Q92949: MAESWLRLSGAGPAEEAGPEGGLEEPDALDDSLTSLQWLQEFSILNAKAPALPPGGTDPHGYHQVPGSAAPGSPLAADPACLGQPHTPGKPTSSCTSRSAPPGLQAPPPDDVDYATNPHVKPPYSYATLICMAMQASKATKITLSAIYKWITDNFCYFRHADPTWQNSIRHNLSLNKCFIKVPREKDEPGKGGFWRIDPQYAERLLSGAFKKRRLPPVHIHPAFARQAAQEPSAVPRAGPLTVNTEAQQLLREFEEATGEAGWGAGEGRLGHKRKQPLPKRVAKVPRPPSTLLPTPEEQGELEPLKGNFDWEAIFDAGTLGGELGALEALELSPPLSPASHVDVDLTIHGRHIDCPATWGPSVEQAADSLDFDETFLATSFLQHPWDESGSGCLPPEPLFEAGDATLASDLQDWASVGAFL

B1: TMEM41B (protein, UniProt Q5BJD5 1-291)
chain: MAKGRVAERSQLGAHHTTPVGDGAAGTRGLAAPGSRDHQKEKSWVEAGSARMSLLILVSIFLSAAFVMFLVYKNFPQLSEEERVNMKVPRDMDDAKALGKVLSKYKDTFYVQVLVAYFATYIFLQTFAIPGSIFLSILSGFLYPFPLALFLVCLCSGLGASFCYMLSYLVGRPVVYKYLTEKAVKWSQQVERHREHLINYIIFLRITPFLPNWFINITSPVINVPLKVFFIGTFLGVAPPSFVAIKAGTTLYQLTTAGEAVSWNSIFILMILAVLSILPAIFQKKLKQKFE
B2: cilia- and flagella-associated protein 20 (protein, UniProt Q9Y6A4 1-193)
chain: MFKNTFQSGFLSILYSIGSKPLQIWDKKVRNGHIKRITDNDIQSLVLEIEGTNVSTTYITCPADPKKTLGIKLPFLVMIIKNLKKYFTFEVQVLDDKNVRRRFRASNYQSTTRVKPFICTMPMRLDDGWNQIQFNLLDFTRRAYGTNYIETLRVQIHANCRIRRVYFSDRLYSEDELPAEFKLYLPVQNKAKQ

How the values were obtained:
TTC30B (human) = molecular target: T1, TTC30B (human); assay: affinity purification with mass spectrometry; SF-TAP of tagged baits overexpressed in HEK293T (Strep-Tactin, then anti-FLAG M2 agarose, FLAG peptide elution; lysis 0.5% NP-40 in TBS, 4 °C); LC-MS/MS; interactions scored by socioaffinity (spoke and matrix evidence), FDR/FPR≤0.1
[1] = molecular target: ciliogenesis transcription factor FOXJ1 (human) (UniProt Q92949); assay: as above

Row | Binder | binding (TTC30B (human)) | binding [1]
1 | B1 | binds | 
2 | B2 |  | binds

Reference: PMC4869170
